Assay results: patent publication US20170332691A1, “NUTRITIONAL COMPOSITIONS COMPRISING SN-1 (3) MONOACYLGLYCEROLS FOR USE IN THE TREATMENT OF MALABSORPTION OR MALDIGESTION IN INFANTS OR YOUNG CHILDREN” (NESTEC S.A., priority 2014, published 2017)
At least one structure is not confirmed: it was looked up by name or label, or the drawing left a doubt.

Assay: clinical study: sn-1(3) MAG vs fish oil (TAG) delivering EPA under XENICAL-induced lipid maldigestion
Type: in vivo, human
Settings: humans, with XENICAL, relative to fish oil and XENICAL, p=0.0125 (FIG. 5)
Description: This clinical study compared the efficacy of sn-1(3) MAG and fish oil (TAG) in delivering EPA in humans under lipid maldigestion conditions induced by XENICAL® (ORLISTAT). The comparison was tested in volunteers treated with XENICAL® to induce lipid maldigestion or not treated with XENICAL® (ORLISTAT). The primary objective was to assess accretion of EPA in erythrocytes over 21 days when consumed as fish oil (TAG) or sn-1(3) MAG. The secondary objectives were to assess accretion of EPA in plasma over 21 days and also to assess the pharmacokinetics of EPA after an acute dose either in the form of sn-1(3) MAG or TAG (AUC in chylomicrons over 10 hours postprandial). See FIG. 4 that describes the clinical study timeline.

In the case of `CC/C=C\C/C=C\C/C=C\C/C=C\C/C=C\CCCC(=O)OCC(O)CO` (stereo not shown) [Sn-1(3)-MAG-EPA, sn-1(3)-monoeicosapentaenoylglycerol], the “EPA in chylomicrons, AUC over 10 hours postprandial (acute effect)” value is reported as “statistically significant”.
